Values of other authors as cited in publication PMC4467547 (Journal of Medicinal Chemistry, 2015).

Tested on: healthy kidney cells (Vero)
Conditions: read-out: EC50 cytotoxicity; cited from earlier work

O=C(CCCCCCC(=O)Nc1ccccc1)NO [SAHA, suberoylanilide hydroxamic acid]
EC50: 5.2 ± 0.96 µM
